Assay results as given in PubChem BioAssay AID290 (DTP/NCI, 2004).
The list does not hold the whole screen: it is rich in T/C values a quarter to a half above the control, in often repeated tests (any T/C) and in doses without a T/C. Other doses and runs of a compound stand elsewhere. T/C gives the treated animals as a percentage of the vehicle group. Schedules are NCI's codes, taken here to give the interval after Q, in days (D) or hours (H), and the number of doses after X. Some entries give survivors of the animals treated and no T/C: the source holds a T/C of zero for them, seemingly a mark for toxic or unscored doses. Survivors were counted at the toxicity check, usually on the fifth day, unless a day is given; later deaths do not show.

Tested on: mice, P1798 lymphosarcoma sc, survival or tumor weight T/C
Assay: NCI In Vivo Anticancer Drug Screen. Data for tumor model P1798 Lymphosarcoma (subcutaneous) in unknown mice
Settings: schedule: Q01DX010 (ip)
Procedure: The antitumor activity of compounds was measured in mice bearing transplantable tumors. Survival or tumor size were measured and the results are expressed as the measurement made in the treated group (T) divided by the measurement made in the vehicle treated control group (C). The tumor model used in this assay is P1798 Lymphosarcoma (subcutaneous) in unknown mice

In the case of `O=C(O)CCCc1ccc(N(CCCl)CCCl)cc1`, the survivor count (T/C endpoint: mean tumor weight, dose: 50.0 mg/kg/injection, vehicle: carboxymethylcellulose (CMC), higher T/C = larger tumour) is reported as 6 of 10.

For `C[C@@H]1C[C@@H]([C@H](O)CC2CC(=O)NC(=O)C2)C(=O)[C@@H](C)C1`, the survivor count (T/C endpoint: mean survival time, dose: 12.5 mg/kg/injection, vehicle: water, higher T/C = longer survival) was 1 of 10, the survivor count (T/C endpoint: mean survival time, dose: 25.0 mg/kg/injection, vehicle: water, higher T/C = longer survival) was 4 of 10 and the survivor count (T/C endpoint: mean survival time, dose: 50.0 mg/kg/injection, vehicle: water, higher T/C = longer survival) was 0 of 1. The T/C (T/C endpoint: mean tumor weight, dose: 1.56 mg/kg/injection, vehicle: water, evaluated on day 14, higher T/C = larger tumour) was 139 % of control and the survivor count (T/C endpoint: mean tumor weight, dose: 100.0 mg/kg/injection, vehicle: water, higher T/C = larger tumour) was 0 of 10.

`CCNc1nncs1` was tested, and the survivor count (T/C endpoint: mean tumor weight, dose: 75.0 mg/kg/injection, vehicle: carboxymethylcellulose (CMC), higher T/C = larger tumour) was 6 of 10 and the survivor count (T/C endpoint: mean tumor weight, dose: 150.0 mg/kg/injection, vehicle: carboxymethylcellulose (CMC), higher T/C = larger tumour) was 0 of 10.

`Cc1cc(N(CCCl)CCCl)ccc1N=Nc1ccccc1C(=O)O` was tested, and the survivor count (T/C endpoint: mean tumor weight, dose: 30.0 mg/kg/injection, vehicle: carboxymethylcellulose (CMC), higher T/C = larger tumour) was 0 of 10.

`CSc1ncnc2nc[nH]c12` was tested, and the survivor count (T/C endpoint: mean tumor weight, dose: 200.0 mg/kg/injection, vehicle: carboxymethylcellulose (CMC), higher T/C = larger tumour) was 2 of 10.

For `O=c1[nH]c(Cl)ncc1F`, the survivor count (T/C endpoint: mean tumor weight, dose: 22.0 mg/kg/injection, vehicle: saline, higher T/C = larger tumour) was 3 of 6, the survivor count (T/C endpoint: mean tumor weight, dose: 33.0 mg/kg/injection, vehicle: saline, higher T/C = larger tumour) was 0 of 6 and the survivor count (T/C endpoint: mean tumor weight, dose: 50.0 mg/kg/injection, vehicle: saline, higher T/C = larger tumour) was 0 of 6. The survivor count (T/C endpoint: mean tumor weight, dose: 75.0 mg/kg/injection, vehicle: saline, higher T/C = larger tumour) was 0 of 6.
